This is one part of the list.
Target: T1, OsSMF1 (Oryza sativa, UniProt Q6ZLB0 1-436)
T1 sequence: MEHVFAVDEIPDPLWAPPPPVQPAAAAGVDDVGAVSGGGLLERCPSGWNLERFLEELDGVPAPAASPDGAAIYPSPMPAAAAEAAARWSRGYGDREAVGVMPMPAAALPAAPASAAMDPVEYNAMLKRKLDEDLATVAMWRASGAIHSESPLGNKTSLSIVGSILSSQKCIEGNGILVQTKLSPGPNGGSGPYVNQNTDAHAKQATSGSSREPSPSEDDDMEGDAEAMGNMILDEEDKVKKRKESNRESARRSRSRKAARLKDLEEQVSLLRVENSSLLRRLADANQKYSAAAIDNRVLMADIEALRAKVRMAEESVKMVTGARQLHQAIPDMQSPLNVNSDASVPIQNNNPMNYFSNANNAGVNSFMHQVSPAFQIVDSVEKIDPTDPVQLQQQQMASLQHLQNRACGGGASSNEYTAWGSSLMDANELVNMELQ
Test: protein-binding microarray (RPBM); PBS, 2% BSA, 51.3 ng/ul salmon testes DNA, 50 uM zinc acetate, 200 nM TF, 25 C, 1 h; high values mean tight binding
Details: protein: recombinant; tags: N-terminal polyhistidine and DsRed monomer fusion (pET32a); chain copies: 2; label: CyDye5-dUTP incorporated in the synthesized complementary strand; 3' TTTTT single-stranded linker to array surface; dsDNA, one strand shown
Method in brief: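 The binding signal for each feature is its fluorescence intensity in arbitrary units. An Axon 4000B scanner was used to read a custom Agilent array that had been made double-stranded with Cy5-dUTP primer extension, blocked with 2% BSA, incubated at 25 °C for 1 h with 200 nM protein in PBS, 2% BSA, salmon testes DNA and 50 µM zinc acetate, and washed. The protein was an N-terminal polyhistidine–DsRed transcription factor fusion from E. coli BL21-CodonPlus, purified on Ni–NTA.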

Row | Sequence | binding signal
1 | TGACATGTGGGCCCGAGGGTCCGTGGGGTCCACGTGTGAGCGGAGTCACCTAGTGCAG | 7720 fluorescence intensity (a.u.)
2 | CCCATACACGTATGCATACGTGCGTCATACTTTAATTACTCGGAGTCACCTAGTGCAG | 6820 fluorescence intensity (a.u.)
3 | TCGCTCTGTACTTTACACGTTGGTTCCTTTTGTATGTGATCGGAGTCACCTAGTGCAG | 3250 fluorescence intensity (a.u.)
4 | CGTCCTTATTGTGGTTTTCCACGTGTTTGTCTCTGTGTTTCGGAGTCACCTAGTGCAG | 10100 fluorescence intensity (a.u.)
5 | ATACCCTCTGCTTCCTTCCTACGCTACTGTCTTTCTTCTTCGGAGTCACCTAGTGCAG | 3560 fluorescence intensity (a.u.)
6 | CGAGTTTAGAATCCACACCATGATTACATGTAAACAACGTCGGAGTCACCTAGTGCAG | 44700 fluorescence intensity (a.u.)
7 | GGTGGGTAGCCGTCGTCACTCCACTGCGCTCTCGCTGTCCCGGAGTCACCTAGTGCAG | 4350 fluorescence intensity (a.u.)
8 | AGATATAGATCTGATGCAATTACAACCAGCCAAATGACGTCGGAGTCACCTAGTGCAG | 3930 fluorescence intensity (a.u.)
9 | TTATCTAAAACATCAATTAATATGGAACTGGTGGAGGGAGCGGAGTCACCTAGTGCAG | 26500 fluorescence intensity (a.u.)
10 | GTTTCTCCGAGAACGATCAGTGCGCCAGACATTATAAGCGCGGAGTCACCTAGTGCAG | 31500 fluorescence intensity (a.u.)
11 | GTAAGCTCTTACGCACACTGTGCAGCGACGCTTGCAGTGACGGAGTCACCTAGTGCAG | 3420 fluorescence intensity (a.u.)
12 | GGTTTAACCGTTTGGTAGCTGACATGTGCGCCTGGGCATACGGAGTCACCTAGTGCAG | 3380 fluorescence intensity (a.u.)
13 | ATTTTGAGAAACGGAAGAAGTAGCAAAACTTATGTTTGTGCGGAGTCACCTAGTGCAG | 3140 fluorescence intensity (a.u.)
14 | AGGGTAGATGAGGTGCCTTAGTGCCTATGTGGCAAAGTCCCGGAGTCACCTAGTGCAG | 7360 fluorescence intensity (a.u.)
15 | ATCCAGATTTACTTGGTGAGGCCCTAGGCGTGAGTAGGCACGGAGTCACCTAGTGCAG | 3870 fluorescence intensity (a.u.)
16 | CTTCGATCTAATCTTCTTTCCTAATGCCGATATTACCAAACGGAGTCACCTAGTGCAG | 31600 fluorescence intensity (a.u.)
17 | TAGAAAGAATAAGGGATTAGTGTCTACTAGGTGTCATTGTCGGAGTCACCTAGTGCAG | 3510 fluorescence intensity (a.u.)
18 | GGTTGTTGAGATTAGTCCTATCCTTTGTACACGCCACGGCCGGAGTCACCTAGTGCAG | 3520 fluorescence intensity (a.u.)
19 | GTTGAGTCTGCCCTCGTAACCACCAACTAACATGTAAGCCCGGAGTCACCTAGTGCAG | 3150 fluorescence intensity (a.u.)
20 | TGTCCAAAGCCCACACTGACACGTGGGCCCGAAGCGCACTCGGAGTCACCTAGTGCAG | 10300 fluorescence intensity (a.u.)
21 | TTAGCATCAGAAGCTTTAAACTTTTGAGCTAGTCTCAGTGCGGAGTCACCTAGTGCAG | 3180 fluorescence intensity (a.u.)

Row | Sequence | binding signal
22 | GCAAATGGCGCTGTGCTTGAACCGCAAGGGAGAGAAGAGGCGGAGTCACCTAGTGCAG | 29000 fluorescence intensity (a.u.)
23 | TGACATGTGGGGCCCACGCTGACTCAGCCGCCACGTCAGACGGAGTCACCTAGTGCAG | 19600 fluorescence intensity (a.u.)
24 | CCTCCCTCAACTGCTGACTCAAACGAGTCAACCGCCGAACCGGAGTCACCTAGTGCAG | 7030 fluorescence intensity (a.u.)
25 | GAGAATTTGCTACTAATTGACTTACCAATTTGGAATTTACCGGAGTCACCTAGTGCAG | 46100 fluorescence intensity (a.u.)
26 | TGAAAATGATGTCAATCAAACATGAGTGGGGCCTGCTTTGCGGAGTCACCTAGTGCAG | 3290 fluorescence intensity (a.u.)
27 | GACCTAGCTAAAGTGTTCTTTTGTTGATGTATTTCCAATCCGGAGTCACCTAGTGCAG | 3260 fluorescence intensity (a.u.)
28 | ATACTATTAAACCTGCTCTTATAAAGGTCAGACATCATGCCGGAGTCACCTAGTGCAG | 3200 fluorescence intensity (a.u.)
29 | TAGGAATTAAGCCACATATTTTGGCCAGGCGATGACGGAACGGAGTCACCTAGTGCAG | 3300 fluorescence intensity (a.u.)
30 | AACGAGTGAAGCTCACTGCGGCTAGCTGCTGTCTTGTGTTCGGAGTCACCTAGTGCAG | 3380 fluorescence intensity (a.u.)
31 | TGGTGTTGTTGGTGTCGTCTTGTTCTTGTTTGTGTTTTCTCGGAGTCACCTAGTGCAG | 3310 fluorescence intensity (a.u.)
32 | TGAAAAGTGAAAACCGGTTTTCCACAGGTGATCTCTGAAACGGAGTCACCTAGTGCAG | 24500 fluorescence intensity (a.u.)
33 | GTGCTCTGGAGGAGTTTGGTCTCGATCATCATCTCTCTGACGGAGTCACCTAGTGCAG | 3420 fluorescence intensity (a.u.)
34 | TGTCACTGTTGCTGTCGTTGGCAGGGAATTTGGTGATTCACGGAGTCACCTAGTGCAG | 4490 fluorescence intensity (a.u.)
35 | GCACCTCGCAATATCCATGGTCCCCGCTGCCCGTGGACTCCGGAGTCACCTAGTGCAG | 41200 fluorescence intensity (a.u.)
36 | TCATTCAATATTTACTCGATCGTCATCCATCTCTAAACACCGGAGTCACCTAGTGCAG | 3270 fluorescence intensity (a.u.)
37 | CATCAAAATCGTTGTCTGACTCGGTCTCTTCTAGCTCGCGCGGAGTCACCTAGTGCAG | 5070 fluorescence intensity (a.u.)
38 | ATTCTATGCCAGTGTGACTCGATTTGTGTGTGTCGCAATGCGGAGTCACCTAGTGCAG | 4640 fluorescence intensity (a.u.)
39 | GATTGTGTCGCCCACCGCCTCGTCGACATCTGCACGTCTCCGGAGTCACCTAGTGCAG | 4150 fluorescence intensity (a.u.)
40 | CCACAAACATGCAAGACCAAATTCAACTTCTACAAGTTGTCGGAGTCACCTAGTGCAG | 13900 fluorescence intensity (a.u.)
41 | GGCCGTCTCTTCTGCGGCGGCGGCGGCGGAGATCCGGCAACGGAGTCACCTAGTGCAG | 25300 fluorescence intensity (a.u.)
42 | CGTGCCAATAGCCGTAGTTGAGAGGGACAAGGGAGTTTGGCGGAGTCACCTAGTGCAG | 34800 fluorescence intensity (a.u.)

Nos. 7–16, reprinted for reference:
Row | Sequence | binding signal
7 | GGTGGGTAGCCGTCGTCACTCCACTGCGCTCTCGCTGTCCCGGAGTCACCTAGTGCAG | 4350 fluorescence intensity (a.u.)
8 | AGATATAGATCTGATGCAATTACAACCAGCCAAATGACGTCGGAGTCACCTAGTGCAG | 3930 fluorescence intensity (a.u.)
9 | TTATCTAAAACATCAATTAATATGGAACTGGTGGAGGGAGCGGAGTCACCTAGTGCAG | 26500 fluorescence intensity (a.u.)
10 | GTTTCTCCGAGAACGATCAGTGCGCCAGACATTATAAGCGCGGAGTCACCTAGTGCAG | 31500 fluorescence intensity (a.u.)
11 | GTAAGCTCTTACGCACACTGTGCAGCGACGCTTGCAGTGACGGAGTCACCTAGTGCAG | 3420 fluorescence intensity (a.u.)
12 | GGTTTAACCGTTTGGTAGCTGACATGTGCGCCTGGGCATACGGAGTCACCTAGTGCAG | 3380 fluorescence intensity (a.u.)
13 | ATTTTGAGAAACGGAAGAAGTAGCAAAACTTATGTTTGTGCGGAGTCACCTAGTGCAG | 3140 fluorescence intensity (a.u.)
14 | AGGGTAGATGAGGTGCCTTAGTGCCTATGTGGCAAAGTCCCGGAGTCACCTAGTGCAG | 7360 fluorescence intensity (a.u.)
15 | ATCCAGATTTACTTGGTGAGGCCCTAGGCGTGAGTAGGCACGGAGTCACCTAGTGCAG | 3870 fluorescence intensity (a.u.)
16 | CTTCGATCTAATCTTCTTTCCTAATGCCGATATTACCAAACGGAGTCACCTAGTGCAG | 31600 fluorescence intensity (a.u.)

— publication PMC7819943, “Rice protein-binding microarrays: a tool to detect cis-acting elements near promoter regions in rice”
